Experimental data reported in doi:10.1101/2021.12.08.471779.
Where a chain is given by its changes, count along the chain named. These are yes or no findings as the source states them, for the method shown. Binding seen in cells or lysates may run through a third protein.

By UniProt entry, the sequences of proteins in these tests, tags left out. Where a name states a change or a piece, a line headed by the entry shows the natural chain unless it says otherwise.
UniProt P02929, whole entry, looked up, stated change not applied: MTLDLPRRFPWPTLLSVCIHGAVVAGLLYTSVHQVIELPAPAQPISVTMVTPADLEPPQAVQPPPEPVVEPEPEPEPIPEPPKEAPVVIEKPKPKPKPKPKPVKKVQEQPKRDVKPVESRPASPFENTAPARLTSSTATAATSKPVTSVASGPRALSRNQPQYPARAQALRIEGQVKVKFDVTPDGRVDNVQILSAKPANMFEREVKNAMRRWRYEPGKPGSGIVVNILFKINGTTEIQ

Legend:
Test in all cases: cross-linking
[1] = target: T1, FepA G54C with the TonB box (residues 12-17) deleted (Escherichia coli K-12) (UniProt P05825)
T1 sequence: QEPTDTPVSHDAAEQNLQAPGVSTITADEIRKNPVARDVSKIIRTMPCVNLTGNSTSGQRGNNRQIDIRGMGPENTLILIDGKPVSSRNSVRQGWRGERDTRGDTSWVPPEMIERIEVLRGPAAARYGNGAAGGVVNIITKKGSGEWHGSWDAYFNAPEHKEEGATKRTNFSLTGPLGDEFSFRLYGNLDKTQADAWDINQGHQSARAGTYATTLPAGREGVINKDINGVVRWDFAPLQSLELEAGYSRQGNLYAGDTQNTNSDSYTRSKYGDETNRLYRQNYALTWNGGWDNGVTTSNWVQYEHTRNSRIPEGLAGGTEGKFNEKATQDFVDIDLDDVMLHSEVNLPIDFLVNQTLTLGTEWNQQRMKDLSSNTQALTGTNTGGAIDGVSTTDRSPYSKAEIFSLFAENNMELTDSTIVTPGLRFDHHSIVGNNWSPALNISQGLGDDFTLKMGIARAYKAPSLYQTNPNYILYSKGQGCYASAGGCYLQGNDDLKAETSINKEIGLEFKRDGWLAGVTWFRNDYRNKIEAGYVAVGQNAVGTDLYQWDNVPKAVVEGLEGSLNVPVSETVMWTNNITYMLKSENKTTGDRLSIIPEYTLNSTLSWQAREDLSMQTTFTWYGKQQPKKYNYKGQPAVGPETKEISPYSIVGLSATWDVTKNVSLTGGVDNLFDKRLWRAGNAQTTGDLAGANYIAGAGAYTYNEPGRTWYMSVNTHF

[2] = target: T2, FepA D618C (Escherichia coli K-12) (UniProt P05825)
T2 sequence: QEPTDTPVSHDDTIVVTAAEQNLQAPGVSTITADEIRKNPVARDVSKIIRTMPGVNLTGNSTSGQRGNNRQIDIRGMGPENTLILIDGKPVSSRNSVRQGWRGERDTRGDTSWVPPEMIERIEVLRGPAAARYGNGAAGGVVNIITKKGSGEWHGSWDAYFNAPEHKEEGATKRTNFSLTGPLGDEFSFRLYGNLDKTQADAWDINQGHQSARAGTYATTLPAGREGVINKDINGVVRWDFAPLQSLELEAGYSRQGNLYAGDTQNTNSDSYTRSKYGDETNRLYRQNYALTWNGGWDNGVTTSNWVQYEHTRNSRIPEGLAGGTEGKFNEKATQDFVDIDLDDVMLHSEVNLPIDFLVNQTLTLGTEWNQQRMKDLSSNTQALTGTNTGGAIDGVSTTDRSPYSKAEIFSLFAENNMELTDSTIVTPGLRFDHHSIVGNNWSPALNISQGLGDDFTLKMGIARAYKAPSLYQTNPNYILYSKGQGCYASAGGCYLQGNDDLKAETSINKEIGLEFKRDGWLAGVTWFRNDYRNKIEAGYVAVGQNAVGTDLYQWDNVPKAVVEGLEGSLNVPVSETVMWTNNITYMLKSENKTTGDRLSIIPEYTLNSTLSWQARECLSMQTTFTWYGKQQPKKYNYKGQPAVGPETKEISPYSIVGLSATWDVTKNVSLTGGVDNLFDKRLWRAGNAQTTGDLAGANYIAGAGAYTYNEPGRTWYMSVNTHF

[3] = target: T3, FepA T722C (Escherichia coli K-12) (UniProt P05825)
T3 sequence: T2 sequence with C618D, T722C

Row | binding [1] | binding [2] | binding [3] | Substance
1 | no binding | no binding | – | TonB C18G Q160C (from UniProt P02929 1-239)
2 | – | no binding | no binding | TonB C18G A209C (from UniProt P02929 1-239)
3 | – | no binding | no binding | TonB C18G V206C (from UniProt P02929 1-239)
